Source: the supplement of paper PMC12823440, “Inhibitors supercharge kinase turnover through native proteolytic circuits” (Nature, 2025)
Counter-ions that a name gives are not always drawn. The list shows a part of the results. Hit calls seldom repeat between salt and free forms of one compound.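 In K562 cells expressing nanoluciferase-fused kinases, luminescence was recorded at 4 h intervals between 2 and 18 h, normalized as percent of control with DMSO at 100% and a positive control at 0%. A significant (2 sigma) signal drop marks a time point as decreased. The authors' rule for a hit is not shown and takes in more than the number of time points.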

Protein sequences, listed by entry. Tags and fused reporters are not part of them. Lines headed by an entry give the natural chain unless they say otherwise; changes in a name come on top.
UniProt Q9Y616: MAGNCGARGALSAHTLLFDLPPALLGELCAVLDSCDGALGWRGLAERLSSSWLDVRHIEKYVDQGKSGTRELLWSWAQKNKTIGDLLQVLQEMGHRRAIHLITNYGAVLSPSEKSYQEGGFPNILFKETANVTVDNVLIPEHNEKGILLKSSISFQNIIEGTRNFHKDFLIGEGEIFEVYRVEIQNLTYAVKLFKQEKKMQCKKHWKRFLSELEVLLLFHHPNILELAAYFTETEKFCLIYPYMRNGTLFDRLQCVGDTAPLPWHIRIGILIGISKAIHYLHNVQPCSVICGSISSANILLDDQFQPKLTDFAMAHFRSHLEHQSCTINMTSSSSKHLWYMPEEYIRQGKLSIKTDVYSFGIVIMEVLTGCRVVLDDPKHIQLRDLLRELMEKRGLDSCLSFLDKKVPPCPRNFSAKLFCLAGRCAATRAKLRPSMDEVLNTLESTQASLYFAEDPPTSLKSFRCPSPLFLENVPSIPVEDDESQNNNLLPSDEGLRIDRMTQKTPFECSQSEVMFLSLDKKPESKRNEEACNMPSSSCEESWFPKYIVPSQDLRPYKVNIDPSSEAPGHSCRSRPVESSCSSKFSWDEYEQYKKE
UniProt P23458: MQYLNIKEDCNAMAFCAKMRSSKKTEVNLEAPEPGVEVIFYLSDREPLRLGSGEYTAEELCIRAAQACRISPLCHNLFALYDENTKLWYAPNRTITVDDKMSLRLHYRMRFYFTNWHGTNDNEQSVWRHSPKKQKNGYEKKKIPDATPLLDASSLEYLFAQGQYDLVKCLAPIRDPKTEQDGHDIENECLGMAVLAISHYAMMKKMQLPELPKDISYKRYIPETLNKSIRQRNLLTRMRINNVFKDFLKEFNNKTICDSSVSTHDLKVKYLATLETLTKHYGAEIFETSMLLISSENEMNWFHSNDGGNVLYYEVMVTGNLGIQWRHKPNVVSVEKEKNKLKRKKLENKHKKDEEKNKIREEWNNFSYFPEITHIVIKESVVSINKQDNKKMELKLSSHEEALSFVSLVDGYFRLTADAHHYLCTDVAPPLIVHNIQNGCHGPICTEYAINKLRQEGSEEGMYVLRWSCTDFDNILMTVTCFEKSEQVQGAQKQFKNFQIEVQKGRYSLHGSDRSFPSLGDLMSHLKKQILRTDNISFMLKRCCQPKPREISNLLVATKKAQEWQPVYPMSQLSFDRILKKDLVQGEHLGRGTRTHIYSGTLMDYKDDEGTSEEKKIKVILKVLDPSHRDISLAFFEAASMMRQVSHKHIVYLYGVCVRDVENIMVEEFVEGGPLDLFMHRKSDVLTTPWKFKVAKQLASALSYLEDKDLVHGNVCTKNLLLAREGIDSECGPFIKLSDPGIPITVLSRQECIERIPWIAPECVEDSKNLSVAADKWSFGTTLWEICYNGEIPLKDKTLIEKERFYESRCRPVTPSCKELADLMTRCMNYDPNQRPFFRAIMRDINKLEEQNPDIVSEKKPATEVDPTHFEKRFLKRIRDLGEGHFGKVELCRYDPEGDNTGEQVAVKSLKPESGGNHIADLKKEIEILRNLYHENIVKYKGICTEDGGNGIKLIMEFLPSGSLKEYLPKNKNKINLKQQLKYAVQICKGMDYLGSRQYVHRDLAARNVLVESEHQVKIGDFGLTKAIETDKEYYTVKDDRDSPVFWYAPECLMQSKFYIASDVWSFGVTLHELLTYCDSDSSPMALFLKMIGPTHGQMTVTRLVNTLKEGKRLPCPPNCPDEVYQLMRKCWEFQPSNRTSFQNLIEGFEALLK
UniProt P06239: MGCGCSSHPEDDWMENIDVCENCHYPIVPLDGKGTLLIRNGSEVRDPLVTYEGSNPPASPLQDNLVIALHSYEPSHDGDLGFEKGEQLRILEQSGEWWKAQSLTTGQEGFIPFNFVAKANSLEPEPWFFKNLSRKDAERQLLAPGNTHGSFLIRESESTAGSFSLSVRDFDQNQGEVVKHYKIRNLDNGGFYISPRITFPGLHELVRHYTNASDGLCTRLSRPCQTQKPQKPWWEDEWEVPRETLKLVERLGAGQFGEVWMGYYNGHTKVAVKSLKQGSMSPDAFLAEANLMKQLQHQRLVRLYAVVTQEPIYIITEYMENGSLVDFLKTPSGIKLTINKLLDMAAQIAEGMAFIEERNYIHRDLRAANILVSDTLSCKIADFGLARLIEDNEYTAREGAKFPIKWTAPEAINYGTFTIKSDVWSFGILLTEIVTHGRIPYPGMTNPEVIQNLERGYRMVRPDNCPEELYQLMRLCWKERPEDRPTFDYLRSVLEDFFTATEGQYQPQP
UniProt P53667: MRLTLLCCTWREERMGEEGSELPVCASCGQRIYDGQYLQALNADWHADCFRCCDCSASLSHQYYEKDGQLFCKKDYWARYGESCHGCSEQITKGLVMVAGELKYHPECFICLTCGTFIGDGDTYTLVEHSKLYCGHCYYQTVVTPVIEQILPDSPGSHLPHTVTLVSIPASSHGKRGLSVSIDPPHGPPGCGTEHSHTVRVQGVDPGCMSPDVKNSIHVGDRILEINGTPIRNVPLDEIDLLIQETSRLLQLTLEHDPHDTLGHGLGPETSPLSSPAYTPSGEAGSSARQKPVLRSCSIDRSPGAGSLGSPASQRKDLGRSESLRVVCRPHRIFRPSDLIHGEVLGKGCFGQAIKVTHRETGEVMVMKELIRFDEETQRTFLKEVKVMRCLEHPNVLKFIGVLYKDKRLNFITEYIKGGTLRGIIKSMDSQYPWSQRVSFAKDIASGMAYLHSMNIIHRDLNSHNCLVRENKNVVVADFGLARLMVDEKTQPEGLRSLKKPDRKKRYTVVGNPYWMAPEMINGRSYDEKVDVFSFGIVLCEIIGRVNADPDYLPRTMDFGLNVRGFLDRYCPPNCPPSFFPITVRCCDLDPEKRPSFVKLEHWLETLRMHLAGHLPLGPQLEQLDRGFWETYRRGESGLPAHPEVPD
UniProt P53671: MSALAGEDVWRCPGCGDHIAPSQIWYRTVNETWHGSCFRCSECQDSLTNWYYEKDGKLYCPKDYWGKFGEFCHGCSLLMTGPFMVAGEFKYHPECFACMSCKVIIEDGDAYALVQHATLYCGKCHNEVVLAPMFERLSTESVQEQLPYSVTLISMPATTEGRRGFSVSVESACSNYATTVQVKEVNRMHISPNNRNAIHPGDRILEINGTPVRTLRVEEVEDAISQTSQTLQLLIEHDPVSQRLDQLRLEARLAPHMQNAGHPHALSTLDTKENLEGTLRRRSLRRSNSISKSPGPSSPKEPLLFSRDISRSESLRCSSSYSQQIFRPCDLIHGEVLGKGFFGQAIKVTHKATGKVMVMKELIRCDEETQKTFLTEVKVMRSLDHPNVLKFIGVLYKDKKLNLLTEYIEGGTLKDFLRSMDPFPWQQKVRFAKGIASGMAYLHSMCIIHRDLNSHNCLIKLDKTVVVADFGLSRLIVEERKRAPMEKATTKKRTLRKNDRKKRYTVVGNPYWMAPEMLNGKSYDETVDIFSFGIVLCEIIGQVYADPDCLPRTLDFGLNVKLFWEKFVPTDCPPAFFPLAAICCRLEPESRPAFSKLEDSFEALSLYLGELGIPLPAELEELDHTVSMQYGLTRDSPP
UniProt Q8IWU2: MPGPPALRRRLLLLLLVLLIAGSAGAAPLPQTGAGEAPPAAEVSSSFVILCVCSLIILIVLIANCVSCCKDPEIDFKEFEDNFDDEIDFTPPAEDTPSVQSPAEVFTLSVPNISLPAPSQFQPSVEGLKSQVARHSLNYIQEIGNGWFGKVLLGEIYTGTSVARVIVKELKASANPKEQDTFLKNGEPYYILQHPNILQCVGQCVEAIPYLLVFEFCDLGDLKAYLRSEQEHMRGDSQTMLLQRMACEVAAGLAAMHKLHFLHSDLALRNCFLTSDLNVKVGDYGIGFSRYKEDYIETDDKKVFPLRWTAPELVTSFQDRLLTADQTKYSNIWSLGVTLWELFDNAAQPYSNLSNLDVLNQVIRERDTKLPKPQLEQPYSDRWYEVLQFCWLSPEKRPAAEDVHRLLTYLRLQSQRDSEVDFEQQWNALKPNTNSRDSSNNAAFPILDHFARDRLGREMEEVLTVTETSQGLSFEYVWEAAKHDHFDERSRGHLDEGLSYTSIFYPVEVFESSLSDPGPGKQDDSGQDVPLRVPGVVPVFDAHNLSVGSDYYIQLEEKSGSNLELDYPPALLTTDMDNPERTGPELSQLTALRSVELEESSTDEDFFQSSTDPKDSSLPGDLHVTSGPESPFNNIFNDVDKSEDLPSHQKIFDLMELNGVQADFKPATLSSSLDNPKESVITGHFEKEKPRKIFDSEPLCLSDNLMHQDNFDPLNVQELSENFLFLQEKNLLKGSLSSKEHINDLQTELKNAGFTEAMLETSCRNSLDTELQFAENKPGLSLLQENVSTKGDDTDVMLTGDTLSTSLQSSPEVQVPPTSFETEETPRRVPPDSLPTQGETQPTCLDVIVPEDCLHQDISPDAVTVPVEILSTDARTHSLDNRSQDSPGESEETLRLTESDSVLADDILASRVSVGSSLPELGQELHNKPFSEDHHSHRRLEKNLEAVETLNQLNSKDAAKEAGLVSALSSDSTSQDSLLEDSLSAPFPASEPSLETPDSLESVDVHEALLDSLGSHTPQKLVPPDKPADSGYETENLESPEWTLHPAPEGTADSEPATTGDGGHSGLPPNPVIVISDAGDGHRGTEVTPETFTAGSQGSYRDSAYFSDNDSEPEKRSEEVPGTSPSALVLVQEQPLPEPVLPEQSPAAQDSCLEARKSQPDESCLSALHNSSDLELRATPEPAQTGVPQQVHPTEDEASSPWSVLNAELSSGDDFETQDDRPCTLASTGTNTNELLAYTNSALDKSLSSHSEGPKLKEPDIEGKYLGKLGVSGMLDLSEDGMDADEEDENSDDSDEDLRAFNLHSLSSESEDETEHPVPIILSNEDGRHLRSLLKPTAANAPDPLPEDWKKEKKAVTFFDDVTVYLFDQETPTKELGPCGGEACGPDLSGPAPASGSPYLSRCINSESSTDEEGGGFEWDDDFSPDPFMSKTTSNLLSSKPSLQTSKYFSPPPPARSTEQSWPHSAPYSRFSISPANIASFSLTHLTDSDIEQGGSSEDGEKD
UniProt P07948: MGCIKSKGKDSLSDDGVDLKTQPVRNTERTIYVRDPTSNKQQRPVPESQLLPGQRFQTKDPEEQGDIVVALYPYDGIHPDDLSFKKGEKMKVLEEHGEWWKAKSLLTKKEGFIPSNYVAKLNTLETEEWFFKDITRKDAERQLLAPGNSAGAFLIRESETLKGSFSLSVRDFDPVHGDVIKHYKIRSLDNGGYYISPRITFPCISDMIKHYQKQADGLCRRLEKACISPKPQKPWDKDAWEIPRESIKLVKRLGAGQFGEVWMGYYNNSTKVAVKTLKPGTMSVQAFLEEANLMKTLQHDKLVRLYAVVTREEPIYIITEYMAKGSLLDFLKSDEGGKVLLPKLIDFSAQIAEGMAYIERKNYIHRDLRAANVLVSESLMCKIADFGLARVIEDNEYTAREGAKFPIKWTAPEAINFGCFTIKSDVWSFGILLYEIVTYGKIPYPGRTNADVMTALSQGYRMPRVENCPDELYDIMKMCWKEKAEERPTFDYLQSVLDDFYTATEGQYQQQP
UniProt Q12851: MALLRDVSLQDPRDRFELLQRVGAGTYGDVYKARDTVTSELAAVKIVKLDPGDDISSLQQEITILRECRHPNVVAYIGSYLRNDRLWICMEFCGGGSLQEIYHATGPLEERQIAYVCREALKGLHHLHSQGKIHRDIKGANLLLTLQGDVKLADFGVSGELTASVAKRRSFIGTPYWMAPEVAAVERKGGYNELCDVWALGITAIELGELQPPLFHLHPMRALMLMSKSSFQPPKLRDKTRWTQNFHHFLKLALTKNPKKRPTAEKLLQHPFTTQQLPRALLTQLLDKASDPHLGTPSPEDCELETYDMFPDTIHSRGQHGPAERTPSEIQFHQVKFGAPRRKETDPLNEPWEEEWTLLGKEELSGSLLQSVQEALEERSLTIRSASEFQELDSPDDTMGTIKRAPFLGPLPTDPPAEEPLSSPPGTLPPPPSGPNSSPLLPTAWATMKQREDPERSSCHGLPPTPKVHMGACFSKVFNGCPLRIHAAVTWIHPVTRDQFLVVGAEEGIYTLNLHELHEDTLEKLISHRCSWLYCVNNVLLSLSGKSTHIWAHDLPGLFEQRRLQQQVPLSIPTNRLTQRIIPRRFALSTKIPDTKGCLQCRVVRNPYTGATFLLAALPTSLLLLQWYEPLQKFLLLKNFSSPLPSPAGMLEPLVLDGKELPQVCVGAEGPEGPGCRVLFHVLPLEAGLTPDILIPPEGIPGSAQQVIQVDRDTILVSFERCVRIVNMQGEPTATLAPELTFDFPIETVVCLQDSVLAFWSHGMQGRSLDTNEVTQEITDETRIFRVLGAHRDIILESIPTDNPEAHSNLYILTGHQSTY

Legend:
Assay in all cases: kinase-Nluc reporter destabilization hit call (1 = scored as downregulated) (binary); higher = compound decreases kinase abundance
Details in all cases: K562; 2-18 h
IRAK3 = IRAK3 (UniProt Q9Y616)
JAK1 = JAK1 (UniProt P23458)
LCK = LCK (UniProt P06239)
LIMK1 = LIMK1 (UniProt P53667)
LIMK2 = LIMK2 (UniProt P53671)
LMTK2 = LMTK2 (UniProt Q8IWU2)
LYN = LYN (UniProt P07948)
MAP2K1 = MAP2K1 (UniProt Q02750)
MAP2K2 = MAP2K2 (UniProt P36507)
MAP4K2 = MAP4K2 (UniProt Q12851)

Measured: kinase-Nluc reporter destabilization hit call

CC(C)(C)n1nc(Cc2ccccc2O)c2c(N)ncnc21 (10 µM)
inactive: IRAK3 = 0 | JAK1 = 0 | LCK 0 | LIMK1 = 0 | LIMK2 = 0 | LMTK2 = 0 | LYN 0 | MAP2K1 = 0 | MAP2K2 = 0 | MAP4K2 = 0

CC(=O)N1CCC(c2cc(-c3ccc(NC(=O)c4cccn(-c5ccc(F)cc5)c4=O)cc3F)c3c(N)ncnn23)CC1 (0.5 µM)
inactive: IRAK3 = 0 | JAK1 = 0 | LCK 0 | LIMK1 = 0 | LIMK2 = 0 | LMTK2 = 0 | LYN 0 | MAP2K1 = 0 | MAP2K2 = 0 | MAP4K2 = 0

O=c1cc(N2CCOCC2)nc2c3ccccc3ccn12 [Compound 401] (10 µM)
inactive: IRAK3 = 0 | JAK1 = 0 | LCK 0 | LIMK1 = 0 | LIMK2 = 0 | LMTK2 = 0 | LYN 0 | MAP2K1 = 0 | MAP2K2 = 0 | MAP4K2 = 0

COc1cc(N(C)CCN(C)C)c(N)cc1Nc1nccc(-c2cn(C)c3ccccc23)n1 [Mutated EGFR-IN-1] (10 µM)
inactive: IRAK3 = 0 | JAK1 = 0 | LCK 0 | LIMK1 = 0 | LIMK2 = 0 | LMTK2 = 0 | LYN 0 | MAP2K1 = 0 | MAP2K2 = 0 | MAP4K2 = 0

Cc1ccc(Oc2nc3cc(-c4ccc(-c5ccccc5)cc4)c(Cl)cc3[nH]2)cc1C(=O)O (10 µM)
inactive: IRAK3 = 0 | JAK1 = 0 | LCK 0 | LIMK1 = 0 | LIMK2 = 0 | LMTK2 = 0 | LYN 0 | MAP2K1 = 0 | MAP2K2 = 0 | MAP4K2 = 0

CN(C)c1nc2c(Br)c(Br)c(Br)c(Br)c2[nH]1 (10 µM)
inactive: IRAK3 = 0 | JAK1 = 0 | LCK 0 | LIMK1 = 0 | LIMK2 = 0 | LMTK2 = 0 | LYN 0 | MAP2K1 = 0 | MAP2K2 = 0 | MAP4K2 = 0

CNC(=O)c1ccccc1Oc1nc(Nc2cc(OC)c(OC)c(OC)c2)ncc1Br (2.5 µM)
inactive: IRAK3 = 0 | JAK1 = 0 | LCK 0 | LIMK1 = 0 | LIMK2 = 0 | LMTK2 = 0 | LYN 0 | MAP2K1 = 0 | MAP2K2 = 0 | MAP4K2 = 0

Nc1ncnc2c1c(-c1ccc(Oc3ccccc3)cc1)nn2C1CCN(CCOCCOCCOc2ccc3c(c2)CN(C2CCC(=O)NC2=O)C3=O)CC1 (stereo not given) (2.5 µM)
inactive: IRAK3 = 0 | JAK1 = 0 | LCK 0 | LIMK1 = 0 | LIMK2 = 0 | LMTK2 = 0 | LYN 0 | MAP2K1 = 0 | MAP2K2 = 0 | MAP4K2 = 0

O=C(NC1CCOCC1)c1ccc(-c2cc(-c3c[nH]nc3-c3ccccn3)ccn2)cc1 (10 µM)
inactive: IRAK3 = 0 | JAK1 = 0 | LCK 0 | LIMK1 = 0 | LIMK2 = 0 | LMTK2 = 0 | LYN 0 | MAP2K1 = 0 | MAP2K2 = 0 | MAP4K2 = 0

CCN(CC)c1cc2oc(=O)c(-c3nc4ccccc4o3)cc2cc1C (2.5 µM)
inactive: IRAK3 = 0 | JAK1 = 0 | LCK 0 | LIMK1 = 0 | LIMK2 = 0 | LMTK2 = 0 | LYN 0 | MAP2K1 = 0 | MAP2K2 = 0 | MAP4K2 = 0

COc1cc(/C=C/C(=O)N2CCC=CC2=O)cc(OC)c1OC [Piperlongumine] (2.5 µM)
inactive: IRAK3 = 0 | JAK1 = 0 | LCK 0 | LIMK1 = 0 | LIMK2 = 0 | LMTK2 = 0 | LYN 0 | MAP2K1 = 0 | MAP2K2 = 0 | MAP4K2 = 0

Cn1cc(C2=C(c3cccc(N)c3)C(=O)NC2=O)c2ccccc21 (10 µM)
inactive: IRAK3 = 0 | JAK1 = 0 | LCK 0 | LIMK1 = 0 | LIMK2 = 0 | LMTK2 = 0 | LYN 0 | MAP2K1 = 0 | MAP2K2 = 0 | MAP4K2 = 0

C=CC(=O)N1C(=O)CC(c2ccc(F)cc2)Sc2ccccc21 (stereo not drawn) [GSK-3β inhibitor 3] (10 µM)
inactive: IRAK3 = 0 | JAK1 = 0 | LCK 0 | LIMK1 = 0 | LIMK2 = 0 | LMTK2 = 0 | LYN 0 | MAP2K1 = 0 | MAP2K2 = 0 | MAP4K2 = 0

C[C@@H]1CN(c2cc(-c3n[nH]c4ccc(OC5(C)CC5)cc34)ncn2)C[C@H](C)O1 (10 µM)
inactive: IRAK3 = 0 | JAK1 = 0 | LCK 0 | LIMK1 = 0 | LIMK2 = 0 | LMTK2 = 0 | LYN 0 | MAP2K1 = 0 | MAP2K2 = 0 | MAP4K2 = 0

COc1ccc2cc(-c3nc(-c4ccc([S+](C)[O-])cc4)[nH]c3-c3ccncc3)ccc2c1 (stereo not given) [Tie2 kinase inhibitor 1] (2.5 µM)
inactive: IRAK3 = 0 | JAK1 = 0 | LCK 0 | LIMK1 = 0 | LIMK2 = 0 | LMTK2 = 0 | LYN 0 | MAP2K1 = 0 | MAP2K2 = 0 | MAP4K2 = 0

O=C(Nc1cccc(C(F)(F)F)c1)c1cccc2cc(Oc3cc(CO)ncn3)ccc12 (10 µM)
inactive: IRAK3 = 0 | JAK1 = 0 | LCK 0 | LIMK1 = 0 | LIMK2 = 0 | LMTK2 = 0 | LYN 0 | MAP2K1 = 0 | MAP2K2 = 0 | MAP4K2 = 0

Cc1cc(Nc2ncnc3ccc(-c4ccc(CNCCS(C)(=O)=O)o4)cc23)ccc1Oc1ccn2ncnc2c1 [ARRY-380 (analog )] (2.5 µM)
inactive: IRAK3 = 0 | JAK1 = 0 | LCK 0 | LIMK1 = 0 | LIMK2 = 0 | LMTK2 = 0 | LYN 0 | MAP2K1 = 0 | MAP2K2 = 0 | MAP4K2 = 0

CN1CCC(c2ccccc2CC(C)(C)Nc2nc(N3CCOCC3)nc(-n3c(C(F)F)nc4ccccc43)n2)CC1 [Zandelisib] (10 µM)
inactive: IRAK3 = 0 | JAK1 = 0 | LCK 0 | LIMK1 = 0 | LIMK2 = 0 | LMTK2 = 0 | LYN 0 | MAP2K1 = 0 | MAP2K2 = 0 | MAP4K2 = 0

Oc1ccc(/C=C/c2cc(O)cc(O)c2)cc1 [Resveratrol] (10 µM)
inactive: IRAK3 = 0 | JAK1 = 0 | LCK 0 | LIMK1 = 0 | LIMK2 = 0 | LMTK2 = 0 | LYN 0 | MAP2K1 = 0 | MAP2K2 = 0 | MAP4K2 = 0

CC(C)CNc1ccnc(NCc2csc(-c3ccccc3)n2)n1 [KHS101 hydrochloride] (2.5 µM)
inactive: IRAK3 = 0 | JAK1 = 0 | LCK 0 | LIMK1 = 0 | LIMK2 = 0 | LMTK2 = 0 | LYN 0 | MAP2K1 = 0 | MAP2K2 = 0 | MAP4K2 = 0

CNc1nc(Nc2cn(C(C)(C)C#N)nc2C)ncc1C(F)(F)F (10 µM)
inactive: IRAK3 = 0 | JAK1 = 0 | LCK 0 | LIMK1 = 0 | LIMK2 = 0 | LMTK2 = 0 | LYN 0 | MAP2K1 = 0 | MAP2K2 = 0 | MAP4K2 = 0

Nc1nc(N)c2nc(-c3cccc(O)c3)cnc2n1 (10 µM)
inactive: IRAK3 = 0 | JAK1 = 0 | LCK 0 | LIMK1 = 0 | LIMK2 = 0 | LMTK2 = 0 | LYN 0 | MAP2K1 = 0 | MAP2K2 = 0 | MAP4K2 = 0

Cc1c(-c2ccc(C(N)=O)c3[nH]c4cc(C(C)(C)O)ccc4c23)cccc1-n1cnc2ccccc2c1=O (2.5 µM)
inactive: IRAK3 = 0 | JAK1 = 0 | LCK 0 | LIMK1 = 0 | LIMK2 = 0 | LMTK2 = 0 | LYN 0 | MAP2K1 = 0 | MAP2K2 = 0 | MAP4K2 = 0

O=C(Nc1nc(=O)n(Cc2ccc(Cl)cc2)s1)c1ccc(Cl)cc1 (10 µM)
inactive: IRAK3 = 0 | JAK1 = 0 | LCK 0 | LIMK1 = 0 | LIMK2 = 0 | LMTK2 = 0 | LYN 0 | MAP2K1 = 0 | MAP2K2 = 0 | MAP4K2 = 0

Cc1ccn2c(C(=O)C(=O)c3ccccc3)c(-c3ccccc3)nc2c1 (10 µM)
inactive: IRAK3 = 0 | JAK1 = 0 | LCK 0 | LIMK1 = 0 | LIMK2 = 0 | LMTK2 = 0 | LYN 0 | MAP2K1 = 0 | MAP2K2 = 0 | MAP4K2 = 0

Nc1ncnc2c1c(COc1cccc(Cl)c1)nn2C1CCOCC1 (10 µM)
inactive: IRAK3 = 0 | JAK1 = 0 | LCK 0 | LIMK1 = 0 | LIMK2 = 0 | LMTK2 = 0 | LYN 0 | MAP2K1 = 0 | MAP2K2 = 0 | MAP4K2 = 0

Cc1nn(C)c2c1C(c1ccc(C(F)(F)F)cc1)C(C#N)=C(N)O2 (stereo not given) (10 µM)
inactive: IRAK3 = 0 | JAK1 = 0 | LCK 0 | LIMK1 = 0 | LIMK2 = 0 | LMTK2 = 0 | LYN 0 | MAP2K1 = 0 | MAP2K2 = 0 | MAP4K2 = 0

Some of these compounds in order of molecular weight, smallest number first:
CC(C)CNc1ccnc(NCc2csc(-c3ccccc3)n2)n1 [KHS101 hydrochloride] (2.5 µM)
inactive: IRAK3 = 0 | JAK1 = 0 | LCK 0 | LIMK1 = 0 | LIMK2 = 0 | LMTK2 = 0 | LYN 0 | MAP2K1 = 0 | MAP2K2 = 0 | MAP4K2 = 0

C[C@@H]1CN(c2cc(-c3n[nH]c4ccc(OC5(C)CC5)cc34)ncn2)C[C@H](C)O1 (10 µM)
inactive: IRAK3 = 0 | JAK1 = 0 | LCK 0 | LIMK1 = 0 | LIMK2 = 0 | LMTK2 = 0 | LYN 0 | MAP2K1 = 0 | MAP2K2 = 0 | MAP4K2 = 0

CN1CCC(c2ccccc2CC(C)(C)Nc2nc(N3CCOCC3)nc(-n3c(C(F)F)nc4ccccc43)n2)CC1 [Zandelisib] (10 µM)
inactive: IRAK3 = 0 | JAK1 = 0 | LCK 0 | LIMK1 = 0 | LIMK2 = 0 | LMTK2 = 0 | LYN 0 | MAP2K1 = 0 | MAP2K2 = 0 | MAP4K2 = 0

The results go on:

O=Nc1c2[nH]c3ccccc3nc-2c2ccccc12 [IQ-1S (free acid)] (2.5 µM)
inactive: IRAK3 = 0 | JAK1 = 0 | LCK 0 | LIMK1 = 0 | LIMK2 = 0 | LMTK2 = 0 | LYN 0 | MAP2K1 = 0 | MAP2K2 = 0 | MAP4K2 = 0

C=C[C@@](C)(/C=C/c1ccc(O)cc1)CCC=C(C)C [Bakuchiol] (10 µM)
inactive: IRAK3 = 0 | JAK1 = 0 | LCK 0 | LIMK1 = 0 | LIMK2 = 0 | LMTK2 = 0 | LYN 0 | MAP2K1 = 0 | MAP2K2 = 0 | MAP4K2 = 0
